According to PubChem BioAssay AID504834 (National Center for Advancing Translational Sciences (NCATS), 2011):
In all, about 320,000 compounds went through this assay and about 22,000 (6.9%) were called active. The inconclusive results got no clear call from the source; some entries with a clear call stand among them for comparison. Calls follow the shape of the dose curve; as a rule, active = well fitted inhibition curve with a large enough effect; inconclusive = small, poorly fitted or top-dose-only effect, or another doubt; inactive = no such curve, though single readings can be large or run the other way. Potencies beside an inconclusive call are fits to weak or partial responses and may not hold up.

Test: Primary qHTS for delayed death inhibitors of the malarial parasite plastid, 96 hour incubation
Conditions: P. falciparum luciferase reporter growth; series mostly up to 28.7 µM
Summary of the method: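 Plates of compound plus infected erythrocytes (2% hematocrit, 0.05% parasitemia final) incubate 96 hours, 37 C, 5% CO2. Detection reagent added; reduced luminescence from the parasites' luciferase reporter flags inhibition.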
Potency is read from the fitted curve at half-maximal effect.

SMILES | Potency
O=C(COc1ccccc1)Nc1ccc(OC(F)(F)C(F)F)c(NC(=O)COc2ccccc2)c1 | inconclusive: 6.57 µM [inhibitor, single point]
C(=N\N1CCN(Cc2cccc3ccccc23)CC1)/c1cccnc1 | inconclusive: 0.117 µM [inhibitor, full curve, poor fit]
Nc1c(Cl)c(Cl)nc(C(=O)N/N=C/c2ccco2)c1Cl | inconclusive: 18.5 µM [inhibitor, single point]
O=C1C(=O)N(CCN2CCOCC2)C(c2ccc(Cl)c(Cl)c2)/C1=C(/O)c1ccc2c(c1)OCO2 (stereo unspecified) | inconclusive: 9.28 µM [inhibitor, partial curve, poor fit]
O=C(CCCCCn1c(=S)[nH]c2cc3c(cc2c1=O)OCO3)NCCc1ccccc1 | inconclusive: 18.5 µM [inhibitor, single point]
Cc1ccc(S(=O)(=O)N(CC(=O)NCc2ccncc2)Cc2ccc(F)cc2)cc1 | inactive
Cc1cc(C(=O)N/N=C2\CC(=O)c3ccccc32)c(C)n1-c1ccccc1 | inconclusive: 16.5 µM [inhibitor, single point]
CCOC(=O)c1c(CSc2ccc(CC)cc2)oc2ccc(O)c(CN(C)C)c12 | inactive
O=S(=O)(/N=C(/Nc1cccc2ccccc12)c1ccccc1)c1cccs1 | active: 11.7 µM
CCCc1cc(C(=O)Nc2cc(C)nn2-c2ccccc2)no1 | inactive
CCOC(=O)c1oc2ccccc2c1NC(=O)COc1cccc(OC)c1 | inconclusive: 18.5 µM [inhibitor, single point]
CCOC(=O)c1cnc2c(cnn2C)c1Oc1ccc(OC)cc1 | inconclusive: 18.5 µM [inhibitor, single point]
O=C(NCCc1c[nH]c2ccccc12)C1CCN(S(=O)(=O)c2ccc(F)cc2)CC1 | inactive
CCN(CC)C(=O)N1CCN(c2c([N+](=O)[O-])c(=O)oc3ccccc23)CC1 | inactive
Cc1ccccc1-c1noc(-c2cccs2)n1 | inconclusive: 18.5 µM [inhibitor, single point]
COc1ccc(-c2cnnc(N/N=C/c3ccc(OC)c(OC)c3)n2)cc1 | inactive
CCCCOC(=O)CSc1nc2c(cc1C#N)C(=O)CC(C)(C)C2 | inactive
COC(=O)C1=C(C)N(Cc2ccccc2)C(=NCC2CC2)N[C@H]1c1ccc(Br)cc1 | inconclusive: 0.147 µM [inhibitor, full curve, poor fit]
CN(Cc1ccccc1)c1ccc(C(CC(N)=O)NC(=O)Cc2ccc(Br)cc2)cc1[N+](=O)[O-] (stereo unspecified) | inconclusive: 11.7 µM [inhibitor, single point]
CC(OC(=O)C1CSC2(c3ccc(F)cc3)CCC(=O)N12)C(=O)NC(N)=O (stereo unspecified) | inactive
COc1ccc(CCN(C)CCCN2CC(c3ccccc3)CC2=O)cc1OC (stereo unspecified) | inconclusive: 18.5 µM [inhibitor, single point]
O=S(=O)(NCC(c1ccco1)N1CCOCC1)c1ccc(Cl)cc1 (stereo unspecified) | inconclusive: 18.5 µM [inhibitor, single point]
COc1cc(NC(=O)Cn2cnc(S(=O)(=O)N3CCOCC3)c2)cc(OC)c1OC | inconclusive: 11.7 µM [inhibitor, partial curve, poor fit]

A stretch taken from the entries so far, as a working copy:
SMILES | Potency
C(=N\N1CCN(Cc2cccc3ccccc23)CC1)/c1cccnc1 | inconclusive: 0.117 µM [inhibitor, full curve, poor fit]
Nc1c(Cl)c(Cl)nc(C(=O)N/N=C/c2ccco2)c1Cl | inconclusive: 18.5 µM [inhibitor, single point]
O=C1C(=O)N(CCN2CCOCC2)C(c2ccc(Cl)c(Cl)c2)/C1=C(/O)c1ccc2c(c1)OCO2 (stereo unspecified) | inconclusive: 9.28 µM [inhibitor, partial curve, poor fit]
O=C(CCCCCn1c(=S)[nH]c2cc3c(cc2c1=O)OCO3)NCCc1ccccc1 | inconclusive: 18.5 µM [inhibitor, single point]

More compounds follow:

SMILES | Potency
COc1ccccc1/C=C(/C(=O)NCCCn1ccnc1)c1ccccc1 | inconclusive: 1.47 µM [inhibitor, full curve, poor fit]
Cc1ccc(NC(=O)NC(=O)CSc2nnc(-c3ccc(OC(F)F)cc3)n2N)c(C)c1 | inconclusive: 16.5 µM [inhibitor, single point]
N#Cc1ccccc1NC(=O)CSc1cn[nH]n1 | inactive
CSc1ccccc1NC(=O)c1cc(C)on1 | inactive
CCOC(=O)C1CCCN(C2=NC(=O)/C(=C/c3ccc(O)c(OCC)c3)S2)C1 (stereo unspecified) | inactive
Nc1nc(SCC(=O)N2CCN(c3ccccc3)CC2)n[nH]1 | inconclusive: 10.4 µM [inhibitor, partial curve, poor fit]
CCC(C)c1ccccc1N1CC(C(=O)Nc2ccc(N3CCOCC3)cc2)CC1=O (stereo unspecified) | inconclusive: 11.7 µM [inhibitor, single point]
CCOc1ccc2nc(CN3CCN(Cc4ccccc4OCC)C(CCO)C3)ccc2c1 (stereo unspecified) | inconclusive: 18.5 µM [inhibitor, single point]
COc1ccc(NC(=S)NC(=O)c2cccnc2)cc1 | inconclusive: 18.5 µM [inhibitor, single point]
Cc1ccc(CN2CCS(=O)(=O)CC2)o1 | inconclusive: 0.928 µM [inhibitor, partial curve]
COc1ccc(N(CC(=O)NC2CC3CCC2C3)S(=O)(=O)c2ccc(C)cc2)cc1OC (stereo unspecified) | inactive
O=C(O)CSc1nc2ccccc2n1C1CCCCC1 | inconclusive: 10.4 µM [inhibitor, single point]
CC(=O)N1CCN(C23CC4CC(CC(C4)C2)C3)CC1 | inactive
Cn1cnc([N+](=O)[O-])c1Nc1cccc(O)c1 | inconclusive: 2.62 µM [inhibitor, single point]
CCCC[C@H]1COCCS(=O)(=O)N1Cc1ccc(C)cc1 | inactive
COc1ccc(CNC(=O)C(OC(C)=O)c2ccccn2)cc1 (stereo unspecified) | active: 14.7 µM
CNc1nc(Nc2ccc(Br)cc2)nc(N)c1[N+](=O)[O-] | inactive
Cc1ccc(C2=NOC(=O)/C2=C\C=C\c2ccccc2)cc1 | active: 2.94 µM
Cc1cccc(C)c1NC(=O)CSc1cc(C(=O)c2nccn2C)c2ccccc2n1 | inactive
COc1cc(CNCCNC(=O)c2nonc2N)ccc1OCc1ccc(Cl)cc1 | inactive
CN(Cc1cccc(F)c1)C(=O)CN1C(=O)NC2(CCc3ccccc32)C1=O (stereo unspecified) | inconclusive: 18.5 µM [inhibitor, single point]
COCCN(CC(=O)Nc1cccc(S(=O)(=O)N2CCCC2)c1)Cc1nc2ccccc2c(=O)[nH]1 | inconclusive: 4.65 µM [inhibitor, partial curve, poor fit]
COc1ccccc1NS(=O)(=O)c1cccc(C(=O)N2CCN(C/C=C/c3ccccc3)CC2)c1 | active: 8.28 µM
